Assay results as given in patent publication US6653486B2, “Spiroorthocarbonates containing epoxy groups” (Curators of the University of Missouri, priority 1999, dated 2003).
Like-named read-outs stand apart in the source and are kept apart here.

Key:
[1] = Photoinduced potential of photoinitiator system containing the donor (pH electrode, mV); assay type: physicochemical
[2] = Vinyl ether homopolymerization PDSC with and without EDMAB (Table 2)
Description: For the experiments reported in Table 2, the photopolymerization of various vinyl ethers with and without the use of an electron donor to promote the reaction are reported. Data showing runs where EDMAB was used to promote the reaction are shown in parentheses after the numbers corresponding to runs without EDMAB.

[3] = 0.10 wt % donor added to 1 gram resin, 37° C., >418 nm
[4] = 0.37 wt % donor added to 1 gram resin
[5] = 0.53 wt % donor added to 1 gram resin

| Compound | Photoinduced Potential [1] | Enthalpy ΔH [3] | Induction Time [3] | Time to Exotherm Peak Max. [3] | Conversion at Max. ([2]; with EDMAB) | Enthalpy ([2]; with EDMAB) | Induction Time ([2]; with EDMAB) | Time to Max. ([2]; with EDMAB) | Enthalpy ([2]; with EDMAB (parentheses)) | Conversion at Max. ([2]; without EDMAB) | Enthalpy ([2]; without EDMAB) | Induction Time ([2]; without EDMAB) | Time to Max. ([2]; without EDMAB) | Enthalpy ([2]; without EDMAB, OPIA/CQ, 37° C.) | further results |
| --- | --- | --- | --- | --- | --- | --- | --- | --- | --- | --- | --- | --- | --- | --- | --- |
| CN(C)c1cccc(C(=O)O)c1 [3-DMABA, 3-dimethylamino benzoic acid] | 115 mV | 382 J/g | 19 s | 30 s |  |  |  |  |  |  |  |  |  |  |  |
| CN(C)c1ccc(C(=O)O)cc1 [4-DMABA, 4-dimethylaminobenzoic acid] | 184 mV | 513 J/g | 15 s | 22 s |  |  |  |  |  |  |  |  |  |  |  |
| CN(C)c1ccc(CCO)cc1 [4-DMAPE] | 17 mV | 480 J/g | 38 s | 280 s |  |  |  |  |  |  |  |  |  |  |  |
| C=COCCCCO [BDVE, butanediol vinyl ether] |  |  |  |  | 45% | 10.30 kcal/mole eq | 103 s | 176 s | 371 J/g | 34% | 10.27 kcal/mole eq | 381 s | 537 s | 370 J/g |  |
| C=COCC1CCC(COC=C)CC1 (stereo not shown) [CHDMDVE, 1,4-cyclohexanedimethanol divinyl ether] |  |  |  |  | 24% | 3.40 kcal/mole eq | 30 s | 76 s | 145 J/g | 57% | 7.74 kcal/mole eq | 123 s | 204 s | 330 J/g |  |
| C=COCCOCCOC=C [DEGDVE, di(ethylene glycol)divinyl ether] |  |  |  |  | 30% | 6.39 kcal/mole eq | 37 s | 113 s | 33 J/g | 44% | 10.44 kcal/mole eq | 58 s | 121 s | 539 J/g |  |
| CN(C)c1ccccc1 [DMA, N,N-dimethylaniline] | 54 mV |  |  |  |  |  |  |  |  |  |  |  |  |  |  |
| CN(C)c1ccc(C(=O)C(O)c2ccccc2)cc1 (stereo not shown) [DMAB, 4-dimethylaminobenzoin] | 261 mV | 450 J/g | 22 s | 73 s |  |  |  |  |  |  |  |  |  |  |  |
| CN(C)c1ccc(C=O)cc1 [DMABAL] | 245 mV | 495 J/g | 16 s | 27 s |  |  |  |  |  |  |  |  |  |  |  |
| CCOC(=O)c1ccc(N(C)C)cc1 [EDMAB, ethyl 4-dimethylaminobenzoate] | 200 mV | 434 J/g | 10 s | 13 s |  |  |  |  |  |  |  |  |  |  | Enthalpy ΔH [4]: 436 J/g; Induction Time [4]: 11 s; Time to Exotherm Peak Max. [4]: 16 s; Enthalpy ΔH [5]: 161 J/g; Induction Time [5]: 11 s; Time to Exotherm Peak Max. (0.53 wt % donor, first (major) peak of bimodal exotherm): 13 s |
| C=COCCOC=C [EGDVE, ethylene glycol divinyl ether] |  |  |  |  | 18% | 5.06 kcal/mole eq | 12 s | 14 s | 371 J/g | 50% | 6.45 kcal/mole eq | 52 s | 89 s | 473 J/g |  |
| C=COCC1CO1 (stereo not shown) [GVE, glycidyl vinyl ether] |  |  |  |  | 51% | 5.13 kcal/mole eq | 56 s | 242 s | 429 J/g | 48% | 9.53 kcal/mole eq | 78 s | 284 s | 797 J/g |  |
| O=C(O)CNc1ccccc1 [NPG, N-phenylglycine] | 161 mV | 348 J/g | 12 s | 19 s |  |  |  |  |  |  |  |  |  |  |  |
| C=COCCOCCOCCOC=C [TEGDVE, tri(ethylene glycol)divinyl ether] |  |  |  |  | 19% | 12.70 kcal/mole eq | 17 s | 20 s | 526 J/g | 13% | 10.07 kcal/mole eq | 59 s | 70 s | 417 J/g |  |
| COc1ccc(OC)c(OC)c1 [TMB, 1,2,4-trimethoxybenzene] | 233 mV | 215 J/g | 11 s | 27 s |  |  |  |  |  |  |  |  |  |  |  |
| hexanediol divinyl ether [HDDVE] |  |  |  |  | 23% | 7.77 kcal/mole eq | 51 s | 58 s | 451 J/g | 61% | 9.25 kcal/mole eq | 80 s | 139 s | 537 J/g |  |
